Literature values, collected in US5612319A, “Postexposure prevention of HIV infection or seroconversion” (Medivir AB, priority 1994, dated 1997).
At least one compound was matched to its structure with a doubt left.

Columns and labels:
SIV = conditions: prophylactically, i.e. pre-exposure administered; cited from earlier work
HIV-1, HIV-2 or SIV = conditions: until shortly after "treatment" is concluded; cited from earlier work
HIV = conditions: HIV-infected individuals; cited from earlier work

O=c1[nH]cnc2c1ncn2[C@H]1CC[C@@H](CO)O1 [ddI, dideoxy inosine]
prevention of infection with SIV (SIV): inability to prevent infection with SIV
delay of seroconversion (HIV-1, HIV-2 or SIV): at most appear to delay seroconversion
suppression of AIDS development or reducing viral loads (HIV): clinically significant action
